Experimental findings from patent US20120266268A1 (WASHINGTON STATE UNIVERSITY, published 2012) are described below.

First the molecules themselves.
B1: Arabidopsis thaliana SOB3 (SUPPRESSOR OF PHYTOCHROME B-4 #3) protein (other)
chain: MDGGYDQSGGASRYFHNLFRPELHHQLQPQPQLHPLPQPQPQPQPQQQNSDDESDSNKDPGSDPVTSGSTGKRPRGRPPGSKNKPKPPVIVTRDSPNVLRSHVLEVSSGADIVESVTTYARRRGRGVSILSGNGTVANVSLRQPATTAAHGANGGTGGVVALHGRFEILSLTGTVLPPPAPPGSGGLSIFLSGVQGQVIGGNVVAPLVASGPVILMAASFSNATFERLPLEDEGGEGGEGGEVGEGGGGEGGPPPATSSSPPSGAGQGQLRGNMSGYDQFAGDPHLLGWGAAAAAAPPRPAF
notes: Tested as fusions, not as free protein; In Y2H it was a lexA bait (pBTM116-D9) or a pACT2 prey; In BiFC it was fused to n(1-174)EYFP or c(175-end)EYFP and expressed in onion epidermal cells; also called AHL29; SOB3/AHL29
B3: Arabidopsis thaliana ESC (ESCAROLA) protein (other)
chain: MEGGYEQGGGASRYFHNLFRPEIHHQQLQPQGGINLIDQHHHQHQQHQQQQQPSDDSRESDHSNKDHHQQGRPDSDPNTSSSAPGKRPRGRPPGSKNKAKPPIIVTRDSPNALRSHVLEVSPGADIVESVSTYARRRGRGVSVLGGNGTVSNVTLRQPVTPGNGGGVSGGGGVVTLHGRFEILSLTGTVLPPPAPPGAGGLSIFLAGGQGQVVGGSVVAPLIASAPVILMAASFSNAVFERLPIEEEEEEGGGGGGGGGGGPPQMQQAPSASPPSGVTGQGQLGGNVGGYGFSGDPHLLGWGAGTPSRPPF
notes: Tested as fusions: lexA bait or pACT2 prey in Y2H, and N- or C-terminal EYFP half in BiFC; also called AHL27; ESC/AHL27

In data set [1] the target is B3. In words: yeast two-hybrid, lexA-based (pBTM116-D9 bait, pACT2 prey, strain L40ccU3). The source says: (A) SOB3 was used as prey(pACT2) and ESC was used as bait (pBTM116). Five individual colonies were picked and re-plated on SDII (selection medium containing leucine and histidine) or SDIV (selection medium without leucine and histidine). Pictures were taken 3 days after plating. (B) SOB3 was used as bait and ESC was used as prey.
Protein-protein interaction studies. We first tested the hypothesis that SOB3 can associate with ESC using a yeast two-hybrid (Y2H) approach. For the Y2H assay, a lexA-based system was used consisting of pBTM116-D9 as a bait plasmid and pACT2 (Clontech, Palo Alto, Calif.) as a prey plasmid, together with the yeast reporter strain L40ccU3. Coding sequences of SOB3 and ESC proteins were recombined into both the bait and prey vectors via Gateway® reactions (Invitrogen, Carlsbad, Calif.).

Data set [2] deals with the molecule itself. In words: BiFC (split YFP), onion epidermal cells. The text has this:
(§1) Onion epidermal cells were transformed with the indicated plasmid combination. A monomeric red fluorescent protein (pSAT6-mRFP) was used with each combination as a positive control.
(§2) We further examined these interactions in planta using a transient Bimolecular Fluorescence Complementation (BiFC) Assay with onion epidermal cells biolistically transformed with Gateway® compatible vectors derived from pSAT4-DEST-n(1-174)EYFP-C1 and pSAT5-DEST-c(175-end)EYFP-C1(B) (Citovsky et al., 2006). The cDNAs for SOB3, ESC and HRC were cloned into each BiFC plasmid as in-frame translational fusions with either the N- or C-terminal half of a yellow fluorescent protein (YFP). Empty vectors were used as negative controls. Pairs of BiFC plasmids together with the pSAT6-mRFP plasmid encoding a red fluorescent protein (RFP) were co-bombarded into onion epidermal cells using a PDS-1000/He Biolistic transformation system (BIO-RAD). Reconstructed fluorescence was examined after 40 hours of incubation in the dark with a Zeiss LSM 510 META confocal microscope. The monomeric red fluorescence from the RFP was used to identify successful transformation into onion cells (FIG. 4). […] In the BIFC assay using negative controls (data not shown), yellow fluorescence could not be observed.

The target of data set [3] is B3. Kind of data set: BiFC (split YFP), onion epidermal cells.
Source text: as §1, §2

Data set [4] concerns the target B1. Kind of data set: BiFC (split YFP), onion epidermal cells.
Source text: as §1, §2

Regarding B1, the binding result in data set [1] and in data set [2] was “binds” throughout.

B2: Arabidopsis thaliana HERCULES (HRC/AHL25) protein (other)
chain: MSSYMHPLLGQELHLQRPEDSRTPPDQNNMELNRSEADEAKAETTPTGGATSSATASGSSSGRRPRGRPAGSKNKPKPPTIITRDSPNVLRSHVLEVTSGSDISEAVSTYATRRGCGVCIISGTGAVTNVTIRQPAAPAGGGVITLHGRFDILSLTGTALPPPAPPGAGGLTVYLAGGQGQVVGGNVAGSLIASGPVVLMAASFANAVYDRLPIEEEETPPPRTTGVQQQQPEASQSSEVTGSGAQACESNLQGGNGGGGVAFYNLGMNMNNFQFSGGDIYGMSGGSGGGGGGATRPAF
notes: Tested as EYFP-half fusions in BiFC; also called HRC1; AT4G35390
As for B2, the binding result in data set [3], in data set [2] and in data set [4] was “binds” each time.
Regarding B3, the binding result in data set [2] is reported as “binds”.
